From PMC5680816 come the findings set out here.

No constants are given. Whether binding was seen depends on the method and setting. Some binding calls cover weakened binding; strength is not graded here. Sequences can lack the tags named with a protein.

The assay has as its target T1, Gal4 BD-Dsn1 (yeast) (UniProt P40568).
T1 sequence: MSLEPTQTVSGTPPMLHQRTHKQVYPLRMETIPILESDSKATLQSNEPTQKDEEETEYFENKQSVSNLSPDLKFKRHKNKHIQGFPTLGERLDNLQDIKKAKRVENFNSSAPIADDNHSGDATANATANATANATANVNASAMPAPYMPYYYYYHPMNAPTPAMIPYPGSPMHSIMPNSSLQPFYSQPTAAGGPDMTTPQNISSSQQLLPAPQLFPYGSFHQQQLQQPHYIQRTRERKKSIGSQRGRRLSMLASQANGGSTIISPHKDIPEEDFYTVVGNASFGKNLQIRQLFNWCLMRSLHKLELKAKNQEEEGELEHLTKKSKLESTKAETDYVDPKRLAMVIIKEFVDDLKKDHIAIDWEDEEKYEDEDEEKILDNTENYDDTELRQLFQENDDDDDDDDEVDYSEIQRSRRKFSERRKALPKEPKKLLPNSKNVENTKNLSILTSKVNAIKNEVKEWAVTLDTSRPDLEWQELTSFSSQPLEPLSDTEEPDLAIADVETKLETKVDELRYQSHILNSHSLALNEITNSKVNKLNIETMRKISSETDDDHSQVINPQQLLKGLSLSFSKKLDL
Put plainly: two-hybrid; Gal4 AD and Gal4 BD fusions in AH109 or its derivatives (ABC3Δ, ABC9Δ, single deletions); growth in selective medium (SD-Leu-Trp-His-Ade), 30 °C; DMSO, or nutlin in panels where growth was kept.

B1: Gal4 AD-Csm1 (protein, UniProt P25651 1-190)
chain: MDPLTVYKNSVKQQIDSADLLVANLVNENFVLSEKLDTKATEIKQLQKQIDSLNAQVKELKTQTSQQAENSEVIKDLYEYLCNVRVHKSYEDDSGLWFDISQGTHSGGSSDDYSIMDYKLGFVKGQAQVTEVIYAPVLKQRSTEELYSLQSKLPEYLFETLSFPLSSLNQFYNKIAKSLNKKREKKDETE
Consider B1, for which the binding result is reported as “binds”.
